Results are given in words; binding and its absence hold for the method and conditions named. Binding seen in cells or lysates may run through a third protein. These calls come from enrichment with a bait or labelling near it, and not all partners need be listed. Where a sequence is shown, tags or fusion partners need not be part of it.
Assays:
[1] = target: T1, FLAG-HAPSTR1 (human) (UniProt Q14CZ0); assay: affinity purification with mass spectrometry; FLAG co-IPs from empty vector, FLAG-HAPSTR1 or FLAG-HAPSTR2 293T cells; in-gel digestion, LC-MS/MS; two independent experiments
T1 sequence: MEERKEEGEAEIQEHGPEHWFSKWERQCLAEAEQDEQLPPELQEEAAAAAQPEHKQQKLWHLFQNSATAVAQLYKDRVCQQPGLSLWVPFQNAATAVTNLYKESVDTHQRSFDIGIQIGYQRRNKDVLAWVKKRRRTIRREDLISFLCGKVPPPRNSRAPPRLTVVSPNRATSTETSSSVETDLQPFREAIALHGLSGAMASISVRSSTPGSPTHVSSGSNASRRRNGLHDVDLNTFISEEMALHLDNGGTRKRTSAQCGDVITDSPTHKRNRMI

Amino acid sequences for entries named in this document (tags omitted).
UniProt Q7Z6Z7: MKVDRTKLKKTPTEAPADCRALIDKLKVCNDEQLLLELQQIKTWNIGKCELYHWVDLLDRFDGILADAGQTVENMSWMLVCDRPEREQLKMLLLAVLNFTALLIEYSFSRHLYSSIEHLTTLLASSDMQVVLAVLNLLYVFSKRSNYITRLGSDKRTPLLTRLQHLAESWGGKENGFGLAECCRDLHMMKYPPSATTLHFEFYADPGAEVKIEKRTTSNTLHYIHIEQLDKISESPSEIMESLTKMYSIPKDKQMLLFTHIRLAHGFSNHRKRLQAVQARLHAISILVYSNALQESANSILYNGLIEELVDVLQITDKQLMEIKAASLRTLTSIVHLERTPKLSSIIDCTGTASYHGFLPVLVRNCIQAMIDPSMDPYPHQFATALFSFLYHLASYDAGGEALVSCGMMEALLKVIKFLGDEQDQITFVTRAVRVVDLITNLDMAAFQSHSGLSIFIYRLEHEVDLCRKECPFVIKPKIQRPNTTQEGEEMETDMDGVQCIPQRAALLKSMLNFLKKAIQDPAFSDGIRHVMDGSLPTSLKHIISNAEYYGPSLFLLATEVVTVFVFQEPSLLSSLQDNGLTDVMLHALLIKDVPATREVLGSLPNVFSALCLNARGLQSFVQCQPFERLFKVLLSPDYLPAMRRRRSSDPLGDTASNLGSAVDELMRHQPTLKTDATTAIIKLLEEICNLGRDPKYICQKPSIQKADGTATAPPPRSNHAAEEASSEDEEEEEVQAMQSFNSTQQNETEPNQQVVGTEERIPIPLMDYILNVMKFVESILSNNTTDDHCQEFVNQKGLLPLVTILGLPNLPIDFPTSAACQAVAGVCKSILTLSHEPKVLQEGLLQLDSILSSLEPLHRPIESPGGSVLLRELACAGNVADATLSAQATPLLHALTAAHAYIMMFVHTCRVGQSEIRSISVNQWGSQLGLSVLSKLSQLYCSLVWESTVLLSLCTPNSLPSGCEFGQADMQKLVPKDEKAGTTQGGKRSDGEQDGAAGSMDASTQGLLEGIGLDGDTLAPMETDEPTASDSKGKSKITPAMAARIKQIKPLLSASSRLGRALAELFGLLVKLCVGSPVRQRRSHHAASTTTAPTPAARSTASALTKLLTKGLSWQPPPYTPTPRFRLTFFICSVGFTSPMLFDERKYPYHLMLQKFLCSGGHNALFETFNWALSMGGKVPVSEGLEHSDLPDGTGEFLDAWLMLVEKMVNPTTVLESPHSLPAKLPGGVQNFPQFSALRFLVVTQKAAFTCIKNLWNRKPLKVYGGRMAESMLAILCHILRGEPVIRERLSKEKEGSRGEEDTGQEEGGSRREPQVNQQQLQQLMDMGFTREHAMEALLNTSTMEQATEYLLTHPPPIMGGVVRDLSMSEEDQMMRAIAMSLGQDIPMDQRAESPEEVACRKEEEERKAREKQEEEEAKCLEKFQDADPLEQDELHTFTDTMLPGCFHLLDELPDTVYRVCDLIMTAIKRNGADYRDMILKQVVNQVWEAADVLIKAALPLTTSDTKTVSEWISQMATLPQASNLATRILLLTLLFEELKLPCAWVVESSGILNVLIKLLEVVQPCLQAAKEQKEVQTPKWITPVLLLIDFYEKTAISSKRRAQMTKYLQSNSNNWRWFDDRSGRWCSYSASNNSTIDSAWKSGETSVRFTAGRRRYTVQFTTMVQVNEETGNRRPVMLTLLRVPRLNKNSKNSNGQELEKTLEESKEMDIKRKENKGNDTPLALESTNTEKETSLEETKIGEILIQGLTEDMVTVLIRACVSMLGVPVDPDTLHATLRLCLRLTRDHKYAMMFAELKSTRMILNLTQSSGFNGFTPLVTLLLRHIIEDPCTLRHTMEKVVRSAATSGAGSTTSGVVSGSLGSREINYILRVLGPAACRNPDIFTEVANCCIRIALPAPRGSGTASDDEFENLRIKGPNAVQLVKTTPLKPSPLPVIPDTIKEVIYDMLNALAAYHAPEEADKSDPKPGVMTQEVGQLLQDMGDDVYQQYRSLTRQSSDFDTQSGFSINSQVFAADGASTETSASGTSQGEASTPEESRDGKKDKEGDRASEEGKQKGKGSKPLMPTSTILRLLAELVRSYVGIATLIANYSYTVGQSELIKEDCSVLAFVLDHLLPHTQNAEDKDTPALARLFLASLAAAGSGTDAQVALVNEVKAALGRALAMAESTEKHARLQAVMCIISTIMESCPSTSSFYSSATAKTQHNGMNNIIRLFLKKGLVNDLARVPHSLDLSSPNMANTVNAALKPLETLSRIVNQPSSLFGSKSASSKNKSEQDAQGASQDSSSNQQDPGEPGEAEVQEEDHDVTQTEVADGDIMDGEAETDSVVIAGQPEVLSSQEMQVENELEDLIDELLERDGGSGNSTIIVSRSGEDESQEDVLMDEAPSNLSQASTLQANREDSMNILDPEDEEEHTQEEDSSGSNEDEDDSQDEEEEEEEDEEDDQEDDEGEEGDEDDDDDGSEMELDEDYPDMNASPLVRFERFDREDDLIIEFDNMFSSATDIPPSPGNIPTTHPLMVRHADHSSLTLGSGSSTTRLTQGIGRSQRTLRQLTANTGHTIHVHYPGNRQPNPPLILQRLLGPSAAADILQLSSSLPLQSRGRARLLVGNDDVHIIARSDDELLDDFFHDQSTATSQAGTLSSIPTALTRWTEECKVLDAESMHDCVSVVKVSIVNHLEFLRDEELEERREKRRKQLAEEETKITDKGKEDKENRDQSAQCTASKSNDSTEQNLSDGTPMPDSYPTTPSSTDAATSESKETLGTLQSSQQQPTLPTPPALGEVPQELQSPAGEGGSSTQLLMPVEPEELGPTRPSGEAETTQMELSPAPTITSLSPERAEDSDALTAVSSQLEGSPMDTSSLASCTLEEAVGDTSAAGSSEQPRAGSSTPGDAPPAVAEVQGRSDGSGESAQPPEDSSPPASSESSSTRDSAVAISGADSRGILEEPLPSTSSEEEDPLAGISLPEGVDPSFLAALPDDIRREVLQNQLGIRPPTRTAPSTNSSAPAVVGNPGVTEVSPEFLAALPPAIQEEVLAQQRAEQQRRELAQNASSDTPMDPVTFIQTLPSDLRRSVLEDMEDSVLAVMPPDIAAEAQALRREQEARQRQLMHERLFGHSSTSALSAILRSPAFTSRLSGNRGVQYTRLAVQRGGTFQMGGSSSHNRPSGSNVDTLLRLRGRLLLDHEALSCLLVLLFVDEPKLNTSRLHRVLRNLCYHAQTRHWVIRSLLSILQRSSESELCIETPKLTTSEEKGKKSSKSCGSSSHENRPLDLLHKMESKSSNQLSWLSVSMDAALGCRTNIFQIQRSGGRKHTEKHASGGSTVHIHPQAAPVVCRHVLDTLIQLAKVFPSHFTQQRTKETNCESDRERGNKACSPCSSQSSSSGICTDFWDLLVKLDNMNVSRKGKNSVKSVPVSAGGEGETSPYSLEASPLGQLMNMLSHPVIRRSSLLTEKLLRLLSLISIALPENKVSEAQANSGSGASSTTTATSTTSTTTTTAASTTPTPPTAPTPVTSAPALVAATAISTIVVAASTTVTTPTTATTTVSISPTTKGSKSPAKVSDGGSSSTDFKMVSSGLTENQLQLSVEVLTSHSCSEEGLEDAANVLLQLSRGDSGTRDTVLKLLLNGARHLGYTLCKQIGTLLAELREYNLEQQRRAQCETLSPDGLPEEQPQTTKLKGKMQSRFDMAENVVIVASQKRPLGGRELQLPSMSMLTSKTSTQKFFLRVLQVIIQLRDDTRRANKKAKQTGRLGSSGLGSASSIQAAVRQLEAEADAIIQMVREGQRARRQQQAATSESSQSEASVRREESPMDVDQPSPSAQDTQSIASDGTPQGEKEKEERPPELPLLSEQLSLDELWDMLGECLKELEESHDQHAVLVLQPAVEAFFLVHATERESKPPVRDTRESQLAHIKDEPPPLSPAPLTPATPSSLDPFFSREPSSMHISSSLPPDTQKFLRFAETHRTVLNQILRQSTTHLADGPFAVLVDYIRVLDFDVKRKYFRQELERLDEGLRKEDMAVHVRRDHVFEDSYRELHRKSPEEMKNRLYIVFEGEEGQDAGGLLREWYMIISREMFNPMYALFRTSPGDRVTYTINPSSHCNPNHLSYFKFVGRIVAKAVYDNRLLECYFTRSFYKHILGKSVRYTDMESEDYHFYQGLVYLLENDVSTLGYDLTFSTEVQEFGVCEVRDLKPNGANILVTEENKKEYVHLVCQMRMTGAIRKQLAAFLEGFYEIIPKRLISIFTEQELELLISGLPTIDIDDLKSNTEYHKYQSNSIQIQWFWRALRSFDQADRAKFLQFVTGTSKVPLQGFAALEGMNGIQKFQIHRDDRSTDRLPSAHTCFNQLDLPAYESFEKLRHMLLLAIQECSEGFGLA

[2] = target: T2, FLAG-tagged HAPSTR2 (human); assay: as above
T2 sequence: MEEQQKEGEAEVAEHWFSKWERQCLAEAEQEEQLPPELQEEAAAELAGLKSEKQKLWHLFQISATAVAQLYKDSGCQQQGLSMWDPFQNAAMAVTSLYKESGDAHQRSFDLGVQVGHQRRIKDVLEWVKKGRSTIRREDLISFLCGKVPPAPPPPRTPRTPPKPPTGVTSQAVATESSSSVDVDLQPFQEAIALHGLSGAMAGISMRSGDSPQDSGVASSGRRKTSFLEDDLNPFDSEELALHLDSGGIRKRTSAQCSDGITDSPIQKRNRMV

binding [1]: binds | binding [2]: binds
Substance: HUWE1 (from UniProt Q7Z6Z7 1-4374) (enzyme)

Reference: paper PMC9834230, “The HAPSTR2 retrogene buffers stress signaling and resilience in mammals” (Nature Communications, 2023)
